Reference: PubChem BioAssay AID504793 (Drosophila RNAi Screening Center, 2011)

Assay: 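Whole-genome screen for parts of the DNA damage checkpoint at G2/M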 (primary screen)
Cells: Drosophila S2R+ cells
Reagents: long dsRNA against Drosophila genes, about 0.25 µg dsRNA per well
Time to read-out: 4 days of dsRNA, then 4 hours of drug before read-out
Treatment: doxorubicin 0.5 µM for 4 hours to cause double-strand breaks, in cells also given a low, harmless dose of dsRNA against nbs to sensitise the assay
Measurement: 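Mitotic index as the number of phospho-histone H3-positive cells in each well following doxorubicin, given as raw counts without normalisation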
Scale: mitotic cells: higher = more cells in mitosis, weaker G2 arrest
Rule for the call: 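Genes are called active only when high mitotic counts were reproduced with independent dsRNAs and mitosis was checked for delay without damage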
Calls: active = confirmed in follow-up tests; inactive = not confirmed
In all, the deposit lists about 23,000 reagents; below is an unselected part of those that have a named target and a result. Over the whole deposit, 62 (0.27%) were called active. 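Calls come from follow-up tests whose scores are not deposited, so confirmed genes may have low counts here; counts are not normalised per plate.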 The raw values are shown without normalisation. Unmarked entries are inactive. Names joined by + are all predicted targets of the reagent.

no.	gene	dsRNA	mitotic cells, replicate 1
1	Nepl3	DRSC02681	6
2	CG33172	DRSC21793	3
3	Ir54a + sub	DRSC06459	9
4	CG8468	DRSC07190	10
5	CG8468	DRSC26347	5
6	Rbp1	DRSC16817	8
7	CtsK2	DRSC06897	5
8	CtsK2	DRSC25927	11
9	CG34266	DRSC08323	4
10	CG10470	DRSC02061	5
11	Rsbp15	DRSC14176	6
12	Rsbp15	DRSC29051	7
13	CG9391	DRSC11858	4
14	CG31204	DRSC15106	8
15	CG31204	DRSC28757	6
16	Pli	DRSC16792	10
17	salt	DRSC15427	10
18	salt	DRSC25514	3
19	mle	DRSC04921	6
20	CG34398	DRSC01052	12
21	CG34398	DRSC02511	4
22	CG34398	DRSC03228	5
23	CG34398	DRSC23293	4
24	Pof	DRSC04405	3
25	CG5984	DRSC15930	17
26	ND-MNLL	DRSC18159	12
27	Pkcdelta	DRSC19356	17
28	Pkcdelta	DRSC19399	12
29	Pkcdelta	DRSC27039	6
30	CG9630	DRSC16527	7
31	18w	DRSC05029	3
32	18w	DRSC29700	5
33	Reepl1	DRSC19418	4
34	Reepl1	DRSC26698	8
35	bab2	DRSC08150	5
36	bab2	DRSC26326	10
37	14-3-3zeta	DRSC05028	8
38	14-3-3zeta	DRSC27525	21
39	Der-2	DRSC15021	5
40	HLH3B	DRSC18669	5
41	HLH3B	DRSC25447	5
42	eIF3j	DRSC06107	7
43	CG30458	DRSC28635	9
44	lncRNA:CR32368	DRSC08899	13
45	lncRNA:CR32368	DRSC25473	5
46	CG7222	DRSC07019	7
47	fbl + CG33969	DRSC27922	7
48	grp + CG31782 (retired record)	DRSC03541	46 (active)
49	Pbp95	DRSC15448	4
50	Pbp95	DRSC27283	4
51	RASSF8	DRSC15707	10
52	RASSF8	DRSC26449	9
53	CG6059	DRSC15958	9
54	Mau2	DRSC15550	6
55	CG13311	DRSC09982	5
56	CG9123	DRSC20156	3
57	CG7974	DRSC08607	5
58	CG7974	DRSC26643	5
59	MICAL-like	DRSC09829	4
60	Mcm5	DRSC16735	6
61	Mcm5	DRSC29514	4
62	krz	DRSC16979	9
63	CG5112	DRSC15718	6
64	Muc91C	DRSC16297	16
65	Muc91C	DRSC21696	9
66	Muc91C	DRSC25918	7
67	Herc4	DRSC08631	9
68	CG10164	DRSC14197	13
69	Dhps	DRSC10948	10
70	Pez	DRSC03397	3
71	Pez	DRSC27921	6
72	Mco1	DRSC02720	6
73	EMC6	DRSC14386	11
74	Ir93a	DRSC15212	7
75	Ir93a	DRSC15213	9
76	Ir93a	DRSC28149	6
